Measured values: article PMC5516854
No constants are given. Whether binding was seen depends on the method and setting. Binding seen in cells or lysates may run through a third protein. Some binding calls cover weakened binding; strength is not graded here.

The chains behind the UniProt entries cited, without tags or fusion partners. Residues count along the entry.
UniProt P13569: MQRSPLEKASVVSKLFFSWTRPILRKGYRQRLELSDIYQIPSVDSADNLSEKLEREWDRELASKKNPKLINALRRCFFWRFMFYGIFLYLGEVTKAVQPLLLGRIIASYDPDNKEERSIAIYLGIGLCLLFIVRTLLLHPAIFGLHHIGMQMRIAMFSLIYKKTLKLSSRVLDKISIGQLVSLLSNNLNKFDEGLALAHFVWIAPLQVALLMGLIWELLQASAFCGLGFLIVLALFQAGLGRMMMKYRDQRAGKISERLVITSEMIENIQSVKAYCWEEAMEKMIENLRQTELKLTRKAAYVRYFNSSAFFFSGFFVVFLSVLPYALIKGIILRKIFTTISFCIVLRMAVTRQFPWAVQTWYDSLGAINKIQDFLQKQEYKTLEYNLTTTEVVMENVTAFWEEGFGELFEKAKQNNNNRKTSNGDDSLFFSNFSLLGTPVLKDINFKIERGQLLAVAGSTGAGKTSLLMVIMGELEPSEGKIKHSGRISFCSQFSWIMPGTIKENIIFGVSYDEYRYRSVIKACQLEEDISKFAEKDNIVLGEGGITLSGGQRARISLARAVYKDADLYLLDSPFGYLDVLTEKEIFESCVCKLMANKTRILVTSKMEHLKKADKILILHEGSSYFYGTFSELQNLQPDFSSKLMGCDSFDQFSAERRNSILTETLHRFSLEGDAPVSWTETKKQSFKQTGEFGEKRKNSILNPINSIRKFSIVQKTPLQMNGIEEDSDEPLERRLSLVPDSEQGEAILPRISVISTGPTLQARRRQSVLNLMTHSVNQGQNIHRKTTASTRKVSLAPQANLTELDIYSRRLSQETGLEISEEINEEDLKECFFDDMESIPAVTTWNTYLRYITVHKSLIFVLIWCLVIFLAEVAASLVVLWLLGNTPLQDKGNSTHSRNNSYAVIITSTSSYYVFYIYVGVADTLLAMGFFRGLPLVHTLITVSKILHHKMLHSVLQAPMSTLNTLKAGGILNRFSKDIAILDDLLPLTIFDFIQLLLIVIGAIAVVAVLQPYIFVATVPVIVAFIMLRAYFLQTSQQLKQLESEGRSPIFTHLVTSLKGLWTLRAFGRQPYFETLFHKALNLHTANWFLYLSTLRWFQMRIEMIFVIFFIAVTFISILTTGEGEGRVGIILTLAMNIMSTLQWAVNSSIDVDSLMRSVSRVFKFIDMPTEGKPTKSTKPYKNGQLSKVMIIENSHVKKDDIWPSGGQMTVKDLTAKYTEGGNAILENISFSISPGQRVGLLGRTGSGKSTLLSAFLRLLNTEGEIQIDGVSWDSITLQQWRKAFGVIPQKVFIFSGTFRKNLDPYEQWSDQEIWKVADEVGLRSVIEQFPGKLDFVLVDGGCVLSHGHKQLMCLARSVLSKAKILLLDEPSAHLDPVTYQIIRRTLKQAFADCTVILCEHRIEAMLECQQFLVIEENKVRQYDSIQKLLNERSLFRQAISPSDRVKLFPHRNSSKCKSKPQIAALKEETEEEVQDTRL
UniProt P34925, residues 26-607: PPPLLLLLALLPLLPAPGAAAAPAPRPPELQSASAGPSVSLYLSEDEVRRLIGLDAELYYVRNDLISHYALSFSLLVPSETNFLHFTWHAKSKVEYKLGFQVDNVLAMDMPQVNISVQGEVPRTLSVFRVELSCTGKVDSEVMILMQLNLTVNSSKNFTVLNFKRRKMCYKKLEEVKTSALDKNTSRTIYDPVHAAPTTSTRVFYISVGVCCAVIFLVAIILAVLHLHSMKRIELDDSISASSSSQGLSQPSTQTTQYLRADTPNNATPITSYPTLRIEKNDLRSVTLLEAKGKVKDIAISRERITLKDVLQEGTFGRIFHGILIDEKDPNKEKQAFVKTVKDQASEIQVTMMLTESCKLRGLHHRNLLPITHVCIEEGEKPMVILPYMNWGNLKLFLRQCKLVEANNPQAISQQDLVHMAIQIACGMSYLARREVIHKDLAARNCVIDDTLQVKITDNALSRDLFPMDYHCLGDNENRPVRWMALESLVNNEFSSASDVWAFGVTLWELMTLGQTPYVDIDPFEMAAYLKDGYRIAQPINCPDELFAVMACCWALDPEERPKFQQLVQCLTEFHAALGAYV

B1: Dab, mitogen-responsive phosphoprotein, homolog 2 (Dab2) (protein, UniProt P98082 1-770)
chain: MSNEVETSATNGQPDQQAAPKAPSKKEKKKGPEKTDEYLLARFKGDGVKYKAKLIGIDDVPDARGDKMSQDSMMKLKGMAAAGRSQGQHKQRIWVNISLSGIKIIDEKTGVIEHEHPVNKISFIARDVTDNRAFGYVCGGEGQHQFFAIKTGQQAEPLVVDLKDLFQVIYNVKKKEEEKKKIEEASKAVENGSEALMILDDQTNKLKSGVDQMDLFGDMSTPPDLNSPTESKDILLVDLNSEIDTNQNSLRENPFLTNGITSCSLPRPTPQASFLPENAFSANLNFFPTPNPDPFRDDPFTQPDQSTPSSFDSLKSPDQKKENSSSSSTPLSNGPLNGDVDYFGQQFDQISNRTGKQEAQAGPWPFSSSQTQPAVRTQNGVSEREQNGFSVKSSPNPFVGSPPKGLSIQNGVKQDLESSVQSSPHDSIAIIPPPQSTKPGRGRRTAKSSANDLLASDIFAPPVSEPSGQASPTGQPTALQPNPLDLFKTSAPAPVGPLVGLGGVTVTLPQAGPWNTASLVFNQSPSMAPGAMMGGQPSGFSQPVIFGTSPAVSGWNQPSPFAASTPPPVPVVWGPSASVAPNAWSTTSPLGNPFQSNIFPAPAVSTQPPSMHSSLLVTPPQPPPRAGPPKDISSDAFTALDPLGDKEIKDVKEMFKDFQLRQPPAVPARKGEQTSSGTLSAFASYFNSKVGIPQENADHDDFDANQLLNKINEPPKPAPRQVSLPVTKSTDNAFENPFFKDSFGSSQASVASSQPVSSEMYRDPFGNPFA

Biological target: cystic fibrosis transmembrane conductance regulator (CFTR) (human (endogenous in HEK293)) (UniProt P13569)
Assay: co-IP; endogenous CFTR as bait, endogenous Ryk and Dab2 detected; HEK293 cells, No Wnt control or transiently expressing Wnt 1, 2, 2b2, 3 or 3a (interactions qualitatively diminished with these Wnts)

| Molecule | binding |
| --- | --- |
| receptor-like tyrosine kinase (Ryk) (from UniProt P34925 26-607) | binds |
| B1 | binds |
